# Measured values as given in PubChem BioAssay AID445 (National Center for Advancing Translational Sciences (NCATS), 2006).
# This is one part of the list. Further columns of the screen follow, without active or inactive calls. Most of these compounds were active or inconclusive in the main read-out, so they are no random draw. The note in brackets gives the kind of curve behind each potency; many fits are weak.
# Experiment: IkB Signaling
# Details: ABC-DLBCL IkBa-CBG/CBR dual luciferase ratio (green luciferase fused to IkBa over red control in OCI-Ly3 lymphoma cells), 4 h; measured here: control luc red channel unless noted
# Summary of the method: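 Luminescence ratio of IκBα-fused green versus native red beetle luciferase in OCI-Ly3 cells, 4 h post-doxycycline with compound; red signal alone, scaled from basal (0%) to zero light (-100%), flagged nonspecific or cytotoxic effects.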
row,SMILES,AC50
1,CCOc1ccc(NC(=O)c2cnn(-c3ccc(C)c(C)c3)c2C2CCN(C(=O)OC(C)(C)C)CC2)cc1,"0.01 µM [falling, full curve, poor fit]"
2,CCc1ccc(OCC(=O)N(Cc2ccco2)Cc2ccccc2Cl)cc1,"31.6 µM [falling, partial curve]"
3,CCCC(=O)Nc1ccc2oc(-c3cccnc3)nc2c1,"0.1 µM [rising, full curve, poor fit]"
4,Cc1ccc(-c2csc(NC(=O)c3cccc(S(=O)(=O)N4CCN(C)CC4)c3)n2)cc1,"12.6 µM [falling, partial curve]"
5,COc1ccc(NCc2cc3cc4c(cc3n(CC(=O)Nc3ccc(F)cc3)c2=O)OCCO4)cc1,"15.8 µM [falling, partial curve]"
6,COc1cccc(C(=O)N(Cc2cccnc2)c2nc3c(OC)ccc(C)c3s2)c1OC,"15.8 µM [falling, partial curve]"
7,O=C(CSc1nc2ccccc2nc1Cc1ccc(Cl)cc1)N1CCCc2ccccc21,"31.6 µM [falling, partial curve]"
8,COc1ccc(NC(=O)c2ccc(COc3ccccc3Br)o2)cc1OC,"7.94 µM [falling, partial curve]"
9,O=C(c1ccc([N+](=O)[O-])cc1)[C@@H](Br)[C@@H](Br)c1ccnc2ccccc12,"6.31 µM [rising, single point] [measured here: IkB-luc green channel]"
10,Cn1c(=O)c2c(nc(SCCOc3ccc4ccc(=O)oc4c3)n2C)n(C)c1=O,"2 µM [falling, full curve, poor fit]"
11,COC(=O)C(C)Sc1nc2c(cnn2-c2ccc(F)cc2)c(=O)[nH]1 (stereo unspecified),"3.98 µM [rising, partial curve]"
12,Cc1nc2ccccc2n2c(-c3ccccc3)c3c(=O)n(C)c(=O)n(C)c3c12,"39.8 µM [falling, single point]"
13,CCOC(=O)Cn1c(=O)n(C2CCCCC2)c2nc(-c3ccc(CC)cc3)nc(C(N)=O)c21,"39.8 µM [rising, single point]"
14,Cc1cc(C)cc(NC(=O)Cn2c(=O)n(-c3cc(C)cc(C)c3)c(=O)c3oc4ccccc4c32)c1,"10 µM [falling, partial curve]"
15,Cc1ccc(S(=O)(=O)NCCc2csc(-c3ccc(Cl)cc3)n2)cc1,"10 µM [falling, partial curve]"
16,Cc1c(Cl)cccc1NC(=O)CCS(=O)(=O)c1ccc2c(c1)oc(=O)n2C,"0.01 µM [falling, full curve, poor fit]"
17,Cc1ccc(NC(=O)CSc2nnc(-c3ccccc3Br)o2)cc1C,"20 µM [falling, partial curve]"
18,Cc1cc2nc(-c3ccc(SCC(=O)N4CCOCC4)nc3)[nH]c2cc1C,"15.8 µM [falling, partial curve]"
19,CCOC(=O)c1oc2ccc(S(=O)(=O)n3nc(-c4ccccc4OC)cc3N)cc2c1C,"12.6 µM [falling, partial curve]"
20,O=C(O)CSCCCC(=O)Nc1ccc(Br)cc1,"31.6 µM [falling, partial curve]"
21,CCCC(=O)Nc1cccc(NC(=O)c2ccc3c(c2)OCO3)c1,"15.8 µM [falling, partial curve]"

row,SMILES,AC50
1,CCn1c(=O)n(-c2ccc(C)c(F)c2)c(=O)c2sc3ccccc3c21,"6.31 µM [rising, single point]"
2,CCOCCCNC(=O)c1ccc2nc(CCc3ccccc3)oc2c1,"1 µM [rising, full curve, poor fit]"
3,COc1ccc(C2=NC3(CCCCC3)N(CC(=O)Nc3ccc(C(C)C)cc3)C2=O)cc1,"15.8 µM [falling, partial curve]"
4,Cn1c(=O)c2c(-c3ccccc3)n3c(c2n(C)c1=O)C(c1ccccc1[N+](=O)[O-])Nc1ccccc1-3 (stereo unspecified),"39.8 µM [falling, single point]"
5,Cn1c(=O)c2c(c3ccccc31)OC(=O)CC2c1ccc(C(F)(F)F)cc1 (stereo unspecified),"31.6 µM [falling, single point]"
6,COc1cccc(NC(=O)c2sc3nc(C)c(C(=O)Nc4ccc(C)cc4C)c(-c4ccccc4Cl)c3c2N)c1,"12.6 µM [falling, partial curve]"
7,CCc1ccc(-c2nc(CN3CCC(C(=O)NCCc4ccc(Cl)cc4)CC3)c(C)o2)cc1,"10 µM [falling, partial curve]"
8,COc1ccc(C)cc1NC(=O)CN(Cc1nnc(-c2ccc(Cl)cc2)o1)C1CCCC1,"12.6 µM [falling, partial curve]"
9,Cn1c2ccccc2c2c(C(=O)N3CCN(c4ccccc4)CC3)cn(C3CCCC3)c(=O)c21,"12.6 µM [falling, partial curve]"
10,Cc1ccc2nc(N(Cc3cccnc3)C(=O)Cc3ccccc3)sc2c1,"39.8 µM [falling, single point]"
11,CCc1ccccc1NC(=O)CCn1nc(C)c2c(C)n(-c3ccccc3)nc2c1=O,"31.6 µM [falling, single point]"
12,Cc1ccccc1Cn1c(SCc2ccc(C(=O)NC(C)c3ccccc3)cc2)nc2ccncc21 (stereo unspecified),"15.8 µM [falling, partial curve]"
13,Fc1ccc(NCc2cccn2-c2nnc(N3CCOCC3)s2)cc1,"0.501 µM [falling, full curve]"
14,CC1CCN(c2ncnc3c2cnn3-c2ccc(F)cc2)CC1,"20 µM [falling, partial curve]"
15,O=C(NCCc1cccs1)c1ccc(Cn2c(SCc3ccc(F)cc3)nc3cccnc32)cc1,"10 µM [falling, partial curve]"
16,COc1ccc(C(=O)CN2CCN(S(=O)(=O)c3ccc(C(C)C)cc3)CC2)cc1,"20 µM [falling, single point]"
17,COc1cccc(N2CC(NC(=O)Cc3cccs3)CC2=O)c1 (stereo unspecified),"6.31 µM [rising, single point]"
18,CCOc1ccc(-c2cc(CCCC(=O)NCc3ccco3)no2)cc1,"2 µM [falling, partial curve]"
19,CCn1cc(C(=O)NCCc2ccc(C)cc2)c(=O)c2cc(S(=O)(=O)N(C)C)ccc21,"12.6 µM [rising, partial curve, poor fit]"
20,Cc1ccccc1C(=O)Nc1ccccc1C(=O)OCc1cc(=O)n2ccsc2n1,"10 µM [falling, full curve]"
21,Cc1cc(C)c(Cn2c3ccccc3c3cnn(CC(=O)N4CCCCC4)c(=O)c32)c(C)c1,"12.6 µM [falling, partial curve]"

# 3 structures from above, arranged by formula weight, rising:
row,SMILES,AC50
18,CCOc1ccc(-c2cc(CCCC(=O)NCc3ccco3)no2)cc1,"2 µM [falling, partial curve]"
3,COc1ccc(C2=NC3(CCCCC3)N(CC(=O)Nc3ccc(C(C)C)cc3)C2=O)cc1,"15.8 µM [falling, partial curve]"
19,CCn1cc(C(=O)NCCc2ccc(C)cc2)c(=O)c2cc(S(=O)(=O)N(C)C)ccc21,"12.6 µM [rising, partial curve, poor fit]"

# Further compounds

row,SMILES,AC50
1,O=C(CSc1nnc(-c2ccc(O)cc2)n1Cc1ccco1)N1CCc2ccccc2C1,"15.8 µM [falling, partial curve]"
2,Cc1c(Cl)cccc1NS(=O)(=O)c1ccc2[nH]cc(C(=O)NC3CCCC3)c(=O)c2c1,"15.8 µM [falling, partial curve]"
3,Cc1ccc(S(=O)(=O)c2nc(-c3cccs3)oc2N2CCCCC2)cc1,"39.8 µM [falling, single point]"
4,Oc1ccccc1C1Nc2cccc3cccc(c23)N1,"15.8 µM [rising, partial curve] [measured here: IkB-luc green channel]"
5,CC(=O)c1cccc(NS(=O)(=O)c2ccc3[nH]c4c(c3c2)CCCCCC4)c1,"39.8 µM [falling, single point]"
6,N#CC1=C(N)SC(N)=C(C#N)C1CCC1CCCCC1,"25.1 µM [falling, partial curve]"
7,CCN(CC)S(=O)(=O)c1ccc2c(c1)nc(SCc1nc3ccsc3c(=O)[nH]1)n2CC,"3.16 µM [falling, partial curve]"
8,CCCCOc1ccc(CNC(=O)CN2CCSc3ccccc32)cc1,"25.1 µM [falling, partial curve]"
9,O=C(NCc1ccco1)c1cc2ccccc2c(=O)o1,"20 µM [falling, single point]"
10,O=C(CSc1ncccc1-c1nc2ccccc2[nH]1)NC1CC1,"0.158 µM [falling, full curve]"
11,CCn1c(SCC(=O)c2cc(C)n(-c3ccc(C(=O)OC)cc3)c2C)nnc1-c1cccnc1,"10 µM [falling, partial curve]"
12,Cc1nc2nc(NC(=O)c3cccc(Cl)c3)[nH]n2c(=O)c1Cc1ccccc1,"12.6 µM [falling, single point]"
13,CCC(C(=O)N1CCN(c2cccc(C)c2C)CC1)n1nc(C)c2sc3ccccc3c2c1=O (stereo unspecified),"12.6 µM [falling, partial curve]"
14,COc1ccc(CCNC(=O)CCc2c(C)nc3c(c(C)nn3-c3ccc(C)c(C)c3)c2C)c(OC)c1OC,"15.8 µM [falling, partial curve]"
15,Cc1ccc(NC(=O)CCn2c(=O)c3cccn3c3ccccc32)c(Cl)c1,"25.1 µM [falling, partial curve]"
16,NS(=O)(=O)c1ccc(CCNC(=O)CCCCCn2c(=O)[nH]c3ccccc3c2=O)cc1,"1.58 µM [rising, full curve]"
17,Cc1ccc(NC(=O)c2nn(C)c3c2CS(=O)(=O)c2ccccc2-3)c(Cl)c1,"31.6 µM [falling, single point]"
18,CCCOc1c(OC)cccc1C1CC(=O)Nc2cc3c(cc21)OCO3 (stereo unspecified),"12.6 µM [falling, partial curve]"
19,O=C(CCCCCn1c(=O)c2sccc2n(CC(=O)Nc2cccc(Cl)c2)c1=O)NCc1ccc2c(c1)OCO2,"3.98 µM [falling, full curve]"
